Test results as given in patent US12508262B2, “Methods of using ALK2 inhibitors” (Keros Therapeutics, Inc., priority 2020, dated 2025).

Test system: mouse model of chronic kidney disease (CKD)
Test: Adenine-induced mouse model of chronic kidney disease
Assay type: in vivo, C57Bl/6 mice
Conditions: adenine 50 mg/kg PO daily, Day 42 (model induction)
Procedure: To induce chronic kidney disease (CKD), 6-week-old C57Bl/6 mice were dosed daily via PO administration with 50 mg/kg of adenine or vehicle. After six weeks of adenine administration, a representative group of mice were taken down and tested to confirm anemia. Concomitantly, the remainder of the CKD mice began dosing with either vehicle or the compound of Formula I-42 5 mg/kg PO daily. Mice were dosed with vehicle or the compound of Formula I-42 while still receiving daily adenine for 10 days. The study was terminated at 52 days and hematology (Heska, Element HT-5), serum hepcidin (Intrinsic Biosciences, Hepcidin Murine Compete), and serum iron (Bioassay Systems, QuantiChrom Kit) levels were assessed.

For Nc1ncnc2nc[nH]c12 [adenine, reference compound], the “serum hepcidin values, higher than vehicle treated mice” value was 248.9% and the “serum iron values, lower than vehicle treated mice” value was 37.6%.
